Data published in patent US20250381324A1 (INSERM (Institut National de la Santé et de la Recherche …, priority 2021, published 2025).

Assay: general procedure: Fmoc solid-phase peptide synthesis; Protide Rink-amide resin (CEM, 100-200 Mesh; loading 0.2 mmol/g); DIC/Oxyma
Settings: conjugation step, TFA salt

## [^#CH2CONH2GTYKSTVIVNNKEKTTAEYQ-(Ttds)4-K(N3)-NH2]-[QHQMLFYhC^#DDVLFYNISSMK-CONH2]
  conjugation yield: Y=21%
